# The supplement of paper PMC10338343
# ± gives the standard deviation. Only a part is listed here, and it is no random draw. Many entries were measured with a wide error. The list shows a part of the results.
# What was measured:
# [1] = tested on: MILI (PIWIL2) piRISC loaded with L1MC piRNA (26 nt); assay: pre-steady-state target cleavage rate (min^-1); higher = faster piRNA-guided slicing of the target; conditions: guide: L1MC piRNA 5'p-UAACUAAAUACUAUGCAAGCUGUAGG
# Outline: (§1)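 With or without 500 nM GTSF1 partner protein, 1 nM active affinity-purified piRISC carrying one synthetic guide was mixed with 0.1 nM transcribed, DNA-blocked target RNA library in HEPES–potassium acetate buffer at 33 °C for 0–8 or 0–960 min. Uncleaved targets were sequenced and normalised to depth and to weakly complementary targets, three trials were pooled, and k3 was capped at 0.0001 min^-1. The pre-steady-state cleavage rate came from a burst-and-steady-state fit.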
# [2] = tested on: MIWI (PIWIL1) piRISC loaded with L1MC piRNA (30 nt); assay: as above; conditions: guide: L1MC piRNA 5'p-UAACUAAAUACUAUGCAAGCUGUAGGUCCU
# Outline: as §1
# [3] = tested on: EfPiwi piRISC loaded with L1MC piRNA (26 nt); assay: pre-steady-state target cleavage rate (min^-1); guide: L1MC piRNA 5'p-UAACUAAAUACUAUGCAAGCUGUAGG; MIWI and MILI are mouse PIWI proteins and EfPiwi is from a freshwater sponge; tags in brackets are library labels; higher = faster piRNA-guided slicing of the target
# Outline: as §1
# [4] = auxiliary factor: none (no GTSF1)
# [5] = auxiliary factor: 500 nM mouse GTSF1
# [6] = auxiliary factor: 500 nM Ephydatia muelleri Gtsf1
# [7] = auxiliary factor: none (no Gtsf1)
Sequence,"pre-steady-state target cleavage rate [1, 4]","pre-steady-state target cleavage rate [2, 5]","pre-steady-state target cleavage rate [2, 4]","pre-steady-state target cleavage rate [3, 6]","pre-steady-state target cleavage rate [3, 7]","pre-steady-state target cleavage rate [1, 5]"
UCCUGGAUGUCCUUGCUAAGUAUUUAGUUA,0.00249 ± 0.0031,0.00244 ± 0.006,0.00117 ± 0.0055,0.000334 ± 0.0093,< 0.0001,
UCCUGGUACAGCUUGCAUAAGUAUUUAGUUA,0.00316 ± 0.0037,0.00262 ± 0.0067,0.00052 ± 0.01,0.00142 ± 0.0047,0.000528 ± 0.022,
UCCUGGAUGUCGAAGCAUAGUAUAAUGUUA,0.000904 ± 0.0064,0.000293 ± 0.024,0.000496 ± 0.013,0.000354 ± 0.0083,0.000238 ± 0.03,
UCCUGGUACACGAUGCAUAGUAUUUACAAA,0.00231 ± 0.0042,0.00297 ± 0.0066,0.00138 ± 0.0066,0.000739 ± 0.0049,0.000313 ± 0.032,
UCCUGGUACAGCUUGCAAUCUAUUUACAAA,0.00105 ± 0.0068,0.000775 ± 0.017,0.000492 ± 0.0099,0.000122 ± 0.036,0.000304 ± 0.022,
UCCUGGAUGUGCUUGCAUAGAUAUUUAGUUA,,0.00145 ± 0.0085,0.00159 ± 0.0059,0.000379 ± 0.011,0.000443 ± 0.018,0.00435 ± 0.0045
UCCUGGAUGUCGUUGCAAAGUUUUUAGUUA,,0.000503 ± 0.017,0.000702 ± 0.0077,0.000244 ± 0.015,0.000202 ± 0.043,0.002 ± 0.0048
UCCUGGAUGUGCUUCGAUAGUAUUUAGUUA,0.00259 ± 0.0036,0.00201 ± 0.0065,0.000857 ± 0.008,0.0013 ± 0.0058,0.00043 ± 0.017,
UCCUGGAUGAGCUACGAUAGUAUUUAGUUA,0.00085 ± 0.0064,0.00076 ± 0.013,0.000421 ± 0.0082,0.000801 ± 0.0079,0.000442 ± 0.017,
UCCUGGAUGUCGAUGCAUAAUAUUUAGUUA,0.00215 ± 0.0025,0.00262 ± 0.0052,0.000503 ± 0.014,0.000575 ± 0.0057,0.00019 ± 0.039,
UCCUGGAACAGCUUGCAUAAGUAUUUAGUUA,0.000864 ± 0.0071,0.00489 ± 0.0033,0.000344 ± 0.0095,0.00284 ± 0.0024,0.000508 ± 0.014,
UCCUGGAUGUCGUUGCAUAGUAUUUAGGUA,0.00254 ± 0.004,0.00144 ± 0.0083,0.00244 ± 0.0032,0.000854 ± 0.0065,0.000421 ± 0.024,
UCCUGGUACAGCUUGCAUAGAUUUUACAAA,0.00151 ± 0.0044,0.00227 ± 0.0058,0.00105 ± 0.0047,0.000829 ± 0.0044,0.000534 ± 0.014,
UCCUGGAUGUCGAUGCAUACUAUUUAGUUA,0.00209 ± 0.0029,0.00289 ± 0.0037,0.000848 ± 0.0068,0.00161 ± 0.0027,0.000322 ± 0.017,
UCCUGGAUCAGCUUGCAUAGGUAUUUAGUUA,,0.00271 ± 0.005,0.00128 ± 0.0077,0.00153 ± 0.004,0.000245 ± 0.033,0.00375 ± 0.0051
UCCUGGUACAGCUUGCAUAGUUAAUACAAA,0.000999 ± 0.0063,0.00427 ± 0.0047,0.000634 ± 0.0072,0.000598 ± 0.0054,0.000755 ± 0.011,
UCCUGGAUGUCCUAGCAUAGAAUUUAGUUA,0.00216 ± 0.003,0.00187 ± 0.0077,0.000974 ± 0.0059,0.00097 ± 0.0048,0.000147 ± 0.05,
UCCUGCUACAGCUUGCAUUCUAUUUACAAA,0.000733 ± 0.0066,0.0158 ± 0.0068,0.000635 ± 0.011,0.000267 ± 0.011,0.000142 ± 0.029,
UCCUGGAUGUGCUUGCAUAUAUUUAGUUA,0.00196 ± 0.003,0.00388 ± 0.0049,0.002 ± 0.0038,0.000735 ± 0.0075,0.000717 ± 0.013,
UCCUGGAUGUCCAUGCAUUGUAUUUAGUUA,0.00215 ± 0.0036,0.00336 ± 0.0043,0.000938 ± 0.0086,0.00235 ± 0.0042,0.000423 ± 0.015,

# Record cards, as listed above:
# UCCUGGAUGUCCUAGCAUAGAAUUUAGUUA is listed as pre-steady-state target cleavage rate [1, 4]: 0.00216 ± 0.003; pre-steady-state target cleavage rate [2, 5]: 0.00187 ± 0.0077; pre-steady-state target cleavage rate [2, 4]: 0.000974 ± 0.0059; pre-steady-state target cleavage rate [3, 6]: 0.00097 ± 0.0048; pre-steady-state target cleavage rate [3, 7]: 0.000147 ± 0.05
# UCCUGGAACAGCUUGCAUAAGUAUUUAGUUA is listed as pre-steady-state target cleavage rate [1, 4]: 0.000864 ± 0.0071; pre-steady-state target cleavage rate [2, 5]: 0.00489 ± 0.0033; pre-steady-state target cleavage rate [2, 4]: 0.000344 ± 0.0095; pre-steady-state target cleavage rate [3, 6]: 0.00284 ± 0.0024; pre-steady-state target cleavage rate [3, 7]: 0.000508 ± 0.014

# (listing goes on)

Sequence,"pre-steady-state target cleavage rate [1, 4]","pre-steady-state target cleavage rate [2, 5]","pre-steady-state target cleavage rate [2, 4]","pre-steady-state target cleavage rate [3, 6]","pre-steady-state target cleavage rate [3, 7]","pre-steady-state target cleavage rate [1, 5]"
UCCUGGAACAGCUUGCAUAGCUAUUUAGUUA,0.00173 ± 0.004,0.0102 ± 0.0047,0.00136 ± 0.0044,0.00066 ± 0.0049,0.000328 ± 0.022,
UCCUGGAUGUCGUUGCAUAGUAUUCAGUUA,0.00182 ± 0.0044,0.00267 ± 0.0047,0.00167 ± 0.0051,0.000395 ± 0.013,0.000194 ± 0.033,
UCCUGGAUGUCGUUGCAUAGUAUUUAGAUA,0.00206 ± 0.0038,0.00174 ± 0.0064,0.00217 ± 0.0038,0.000779 ± 0.0034,0.00063 ± 0.01,
UCCUGGAUGUGCUUGGUUAGUAUUUAGAAA,0.0031 ± 0.0034,0.000578 ± 0.015,0.00133 ± 0.0062,0.000372 ± 0.011,0.000157 ± 0.078,
UCCUGGAACAGCUUGGUAAGUAUUUUCAAA,0.000698 ± 0.0093,0.00122 ± 0.01,0.00069 ± 0.012,0.00119 ± 0.0047,0.000528 ± 0.014,
UCCUGGAUGUCGAACGAAUCUAUUUAGUUA,< 0.0001,0.00039 ± 0.016,0.00033 ± 0.016,0.000117 ± 0.023,0.0001 ± 0.051,
UCCUGGAUCAGCUACCAUAGUAUUUAGAAA,0.000648 ± 0.0092,0.002 ± 0.0064,0.00123 ± 0.0056,0.00205 ± 0.0025,0.000336 ± 0.023,
UCCUGGUACUCGUUGCAUAGUAUUUUCAAA,0.000813 ± 0.0089,0.00145 ± 0.011,0.000318 ± 0.014,0.00025 ± 0.025,0.000756 ± 0.011,
UCCUGGAUGUCGUUGCAAAGUAUUUUGUUA,0.00153 ± 0.0048,0.000755 ± 0.013,0.000155 ± 0.02,0.000284 ± 0.013,0.000128 ± 0.054,
UCCUGGAUGUCGAAGCAUAGUAUUGUAGUUA,0.0009 ± 0.0077,0.000884 ± 0.0091,0.000467 ± 0.014,0.000775 ± 0.011,0.0004 ± 0.016,
UCCUGGAUGUCGUAGCAUAGUUUUUAGUUA,0.0024 ± 0.0037,0.00162 ± 0.0072,0.000741 ± 0.013,0.00029 ± 0.013,0.000332 ± 0.024,
UCCUGGAUGUGCUUGCAUAGUAAUUAGAAA,0.000635 ± 0.01,0.00357 ± 0.004,0.00207 ± 0.0031,0.00219 ± 0.0033,0.000149 ± 0.051,
UCCUGCUACAGCUUGCUUAGAAUUUAGUUA,0.00198 ± 0.0034,0.247 ± 0.026,0.00845 ± 0.0029,0.00357 ± 0.0018,0.000534 ± 0.012,
UCCUGGAUGUCCUUGCAUAGUUAUUAGUUA,0.0025 ± 0.0033,0.00289 ± 0.0037,0.00164 ± 0.0048,0.00117 ± 0.0068,0.000472 ± 0.014,
UCCUGCUACAGCUUGCAAACUAUUUAGUUA,0.00237 ± 0.0034,0.363 ± 0.027,0.00719 ± 0.0031,0.00535 ± 0.002,0.000585 ± 0.012,
UCCUGGUAGUCCUUGCAUAGUAUUUACAAA,0.000911 ± 0.0064,0.00219 ± 0.0057,0.000842 ± 0.0072,0.00121 ± 0.0062,0.00041 ± 0.015,
UCCUGGAUCAGCUUGGUUAGUAUUUUCAAA,0.000983 ± 0.0073,0.00103 ± 0.011,0.000558 ± 0.014,0.000281 ± 0.019,0.000236 ± 0.041,
UCCUGGAACAGCUUGCAUACAUUUUUCAAA,0.000547 ± 0.0087,0.00253 ± 0.0051,0.000232 ± 0.014,0.000871 ± 0.0059,0.000145 ± 0.059,
UCCUGGAACACGAUGCAUAGUAUUUACAAA,0.00131 ± 0.0048,0.00291 ± 0.0059,0.00169 ± 0.0049,0.00408 ± 0.0037,0.000487 ± 0.013,
